Data taken from the supplement of paper PMC3334620.
In all, about 33,000 sequences were measured (“E-score (-0.5 to 0.5)”: median about -0.015, highest 2% from about 0.3 on). This is one part of the list.

Biological target: T1, Abf1 (UniProt P14164)
T1 sequence: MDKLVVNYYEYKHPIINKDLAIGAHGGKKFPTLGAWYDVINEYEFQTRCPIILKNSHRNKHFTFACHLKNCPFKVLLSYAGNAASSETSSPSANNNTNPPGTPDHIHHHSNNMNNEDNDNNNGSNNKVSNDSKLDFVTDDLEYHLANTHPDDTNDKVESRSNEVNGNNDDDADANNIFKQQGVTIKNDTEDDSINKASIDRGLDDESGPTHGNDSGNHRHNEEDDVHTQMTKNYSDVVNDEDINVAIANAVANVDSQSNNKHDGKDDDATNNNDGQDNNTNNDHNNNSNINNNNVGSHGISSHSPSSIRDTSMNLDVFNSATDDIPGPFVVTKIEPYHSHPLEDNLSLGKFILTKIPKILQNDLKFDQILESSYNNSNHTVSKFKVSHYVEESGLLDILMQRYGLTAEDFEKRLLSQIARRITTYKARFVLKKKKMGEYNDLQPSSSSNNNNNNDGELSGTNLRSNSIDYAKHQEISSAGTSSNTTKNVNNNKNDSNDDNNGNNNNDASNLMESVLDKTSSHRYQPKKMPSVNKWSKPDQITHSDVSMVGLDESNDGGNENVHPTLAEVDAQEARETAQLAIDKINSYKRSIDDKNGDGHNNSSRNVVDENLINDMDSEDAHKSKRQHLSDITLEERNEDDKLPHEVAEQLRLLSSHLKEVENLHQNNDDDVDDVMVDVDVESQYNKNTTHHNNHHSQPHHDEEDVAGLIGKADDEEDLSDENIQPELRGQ
Assay: PBM E-score (8-mer binding enrichment) (E-score (-0.5 to 0.5)); higher = stronger / more preferred TF binding
Conditions: protein concentration: 200 nM; construct: GST-full length
Method in brief: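 Universal all-10-mer Agilent arrays, fresh or stripped once, were converted to double-stranded form by primer extension. GST-tagged yeast transcription factors from PURExpress in vitro transcription/translation, full-length or DNA-binding domain only, were applied at about 100-200 nM and detected with fluorescent anti-GST. After masliner normalisation, the Universal PBM Analysis Suite scored each ungapped eight-base word together with its reverse complement by E-score.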

| Sequence | PBM E-score |
| --- | --- |
| AACTCCCG | -0.0344 |
| TTACTCAA | 0.112 |
| CATGCCAA | -0.107 |
| ATGAAAGA | 0.0905 |
| ATGCATAC | 0.0289 |
| CTTCCCCC | -0.428 |
| CCGGACGC | -0.0656 |
| ACAAAACA | 0.00481 |
| AGCCATAG | -0.0419 |
| AGTGGTGA | 0.131 |
| GTTAGTAA | 0.0844 |
| AAGACTTG | 0.0186 |
| AGTTGCAG | -0.139 |
| ATGTAGTG | 0.17 |
| CTCACAGA | -0.031 |
| GTTATAAA | 0.0225 |
| ACTTGATA | 0.227 |
| CTGCGCCC | -0.16 |
| CCTTTACC | -0.282 |
| CGATTGCG | -0.219 |
| AAGTAATG | -0.0501 |
| AAGCGATA | 0.256 |
| CGGACGGC | 0.259 |
| AATGCTAG | -0.155 |
| AGTTCGCC | -0.0547 |

| Sequence | PBM E-score |
| --- | --- |
| ATGTGGCA | -0.123 |
| CAACTCTA | -0.28 |
| CGGAGATC | -0.0599 |
| CGCTACAA | 0.00214 |
| ACCTTATG | -0.0573 |
| GTCAATAA | 0.0223 |
| TATGATGA | 0.313 |
| AGATCTAC | -0.0302 |
| ATAGATGC | -0.223 |
| CAGTCGGA | -0.147 |
| AAGTTTTG | -0.177 |
| CGAAACGA | 0.172 |
| GCGGGCGA | -0.0255 |
| CTGAGTGC | -0.123 |
| CTTGGTTA | 0.0127 |
| CTACTAAA | -0.0406 |
| GACCCGTA | 0.0251 |
| CCGGGCCA | -0.27 |
| ATAAATAC | 0.278 |
| GTAAAGCA | 0.119 |
| TCCTTCGA | 0.0552 |
| ATAAGGTA | -0.0483 |
| GAAAGTTC | -0.101 |
| GATCGAAA | 0.0513 |
| AAGAGTTC | -0.025 |

| Sequence | PBM E-score |
| --- | --- |
| GAAGATTC | 0.185 |
| CTTTCGCC | 0.0247 |
| GAACACTC | -0.0718 |
| ACAACGCT | -0.0795 |
| AGTAGGTA | 0.0649 |
| CCGCCTAA | -0.106 |
| GCTGCCGA | -0.135 |
| GTACTCTA | -0.15 |
| AGACAAGA | 0.06 |
| TAACACAA | -0.0978 |
| CGGTAGAC | -0.18 |
| AATTGCGA | -0.116 |
| AACGTCCT | -0.0408 |
| AATATCAA | 0.0238 |
| AGCTTGGA | -0.248 |
| ACAGGTCC | -0.145 |
| CTCGAGCC | -0.232 |
| AAGAACGC | -0.0765 |
| ATTGGTTG | -0.047 |
| CTGTAATA | 0.111 |
| ATAAAAAT | 0.185 |
| CCCGGGGA | -0.243 |
| AGATCTTC | 0.0666 |
| ATTGCTGA | 0.13 |
| GATAGAAC | 0.0502 |

| Sequence | PBM E-score |
| --- | --- |
| ATCCGGAC | -0.213 |
| CCGGCCAG | -0.113 |
| CCCCATTA | -0.234 |
| ATTTACAC | -0.0414 |
| GAATGTAC | 0.113 |
| ATTAGGAA | 0.0922 |
| AACGTTAA | 0.181 |
| AGCGGACT | -0.23 |
| CGGCTAAC | 0.107 |
| GATTTCCC | 0.0305 |
| GGATCAAC | -0.0123 |
| CAATGTAC | -0.0545 |
| ATACTAGC | 0.041 |
| GATGACTA | 0.169 |
| ATAATATG | 0.262 |
| CCCCTGTC | -0.15 |
| CCGTTTTC | 0.00719 |
| AACTCCCA | -0.164 |
| ACACCTTG | -0.126 |
| AGGCCTAA | 0.0287 |
| GATCCCTA | 0.0759 |
| GTCGGTGA | 0.114 |
| CACGAAAA | 0.31 |
| ACCTTGTA | 0.0842 |
| AAGCTGCC | -0.0332 |

Individual results from the list.
AGCGGACT | PBM E-score: -0.23
CAATGTAC | PBM E-score: -0.0545
GATTTCCC | PBM E-score: 0.0305
AACGTTAA | PBM E-score: 0.181
GTCGGTGA | PBM E-score: 0.114
AGGCCTAA | PBM E-score: 0.0287
ATACTAGC | PBM E-score: 0.041

(further entries)

| Sequence | PBM E-score |
| --- | --- |
| AATCCTCA | 0.0253 |
| CAAAACTA | 0.108 |
| GACGCACC | -0.0524 |
| GGATCGAA | -0.0225 |
| AAATAGCG | 0.0639 |
| CAACCGTA | 0.181 |
| CGCTATCA | 0.0401 |
| ACGCTGCA | -0.159 |
| CCGAGAAC | 0.014 |
| AACCTCTT | 0.00815 |
| AACGCTAC | -0.172 |
| GCAAATCA | 0.141 |
| ATATCGTC | 0.336 |
| AAGCTCAT | -0.0172 |
| CCTCACCC | -0.106 |
| GCTCTCAC | -0.204 |
| AGGATCCA | -0.215 |
| CGCCTGCC | -0.128 |
| GCTACCGA | -0.0534 |
| AAGTCCGC | -0.214 |
| CTCCGCTA | -0.182 |
| ACAGAACG | 0.12 |
| AGGTCCGG | -0.233 |
| AACAATGC | 0.0685 |
| CAGAGGCC | -0.259 |

| Sequence | PBM E-score |
| --- | --- |
| CACTGCGG | -0.201 |
| TCTCCACA | -0.037 |
| GCGCACGA | 0.0514 |
| GGATATCA | 0.247 |
| GTATGGAC | 0.143 |
| ACGAGATA | 0.221 |
| GAAAATCC | 0.0503 |
| AAGGACCC | -0.134 |
| AAGACCCT | -0.235 |
| CCGTAATC | 0.218 |
| CACTTGGC | -0.195 |
| AACTCCCC | -0.128 |
| TCTACTCA | 0.0326 |
| CCTATTCA | -0.0192 |
| CCTTAGAG | -0.149 |
| CCGTCGTA | 0.282 |
| GAGAGGAC | -0.077 |
| CCTCAGCA | 0.0358 |
| CGAACTCG | 0.101 |
| AGGCGATG | -0.0382 |
| ACTCGCAG | -0.0529 |
| GAACTGTC | 0.0782 |
| TTATAAAA | 0.151 |
| GTCTATTA | -0.0181 |
| CTTTAGAC | 0.0745 |

| Sequence | PBM E-score |
| --- | --- |
| AATTCCCC | -0.0902 |
| CGTGGTTC | 0.0193 |
| CACCCGTG | -0.0574 |
| CTAGGAAG | -0.18 |
| TCCTGTCA | 0.0703 |
| AAGTACAT | 0.15 |
| GGAATGAA | -0.116 |
| TCAGTAGA | -0.0357 |
| ACTGCCCC | -0.176 |
| AAGTTCGC | -0.00117 |
| ATAAATAG | 0.104 |
| CTGCAGAC | -0.162 |
| GCATTATA | 0.0562 |
| AGGCCTAG | -0.0501 |
| AACCCTAT | -0.117 |
| AGTTCAAA | 0.0194 |
| CAGAATAA | 0.00085 |
| GCTCAATA | 0.127 |
| CCAGATAC | -0.082 |
| GGTGCGAC | 0.0192 |
| CAATCTAC | -0.0654 |
| CGTCTAAA | 0.153 |

Rewritten comma-delimited: part of the list above.
Sequence,PBM E-score
ATGTGGCA,-0.123
CAACTCTA,-0.28
CGGAGATC,-0.0599
CGCTACAA,0.00214
ACCTTATG,-0.0573
GTCAATAA,0.0223
